Literature values in US11253486B2, “Bakuchiol compositions for treatment of post inflammatory hyperpigmentation” (Unigen, Inc., priority 2011, dated 2022).
At least one structure is not confirmed: it was looked up by name or label, or the drawing left a doubt.

Tested on: acne lesions and Post Inflammatory Hyperpigmentation
Conditions: OTC drugs, Studies 1-3, 10 or 12 week studies; cited from earlier work

In the case of CCC[C@@H]1C[C@@H](C(=O)N[C@@H]([C@H]2O[C@H](SC)[C@H](O)[C@@H](O)[C@H]2O)[C@H](C)Cl)N(C)C1 [Clindamycin (1%), Clindamycin], the “Improvement of Post Inflammatory Hyperpigmentation” value is given as 0, the “Mean percent reduction in inflammatory lesion counts” value is given as 16% and the “Mean percent reduction in non-inflammatory lesion counts” value is given as 9%. The “Mean percent reduction in total lesion counts” value was 15%.
